From PMC7566471, “A new perspective on the interaction between the Vg/VGLL1-3 proteins and the TEAD transcription factors” (Scientific Reports, 2020)
No constants are given. Whether binding was seen depends on the method and setting. In cells and extracts the contact can be indirect. Some binding calls cover weakened binding; strength is not graded here. Where a sequence is shown, tags or fusion partners need not be part of it.

Chains of the proteins cited; added tags and fusions are not shown. Lines headed by an entry give the natural chain unless they say otherwise; changes in a name come on top. A line that says so, or that is headed by a name, gives the form on record, which may keep a tag or linker.
UniProt Q15561: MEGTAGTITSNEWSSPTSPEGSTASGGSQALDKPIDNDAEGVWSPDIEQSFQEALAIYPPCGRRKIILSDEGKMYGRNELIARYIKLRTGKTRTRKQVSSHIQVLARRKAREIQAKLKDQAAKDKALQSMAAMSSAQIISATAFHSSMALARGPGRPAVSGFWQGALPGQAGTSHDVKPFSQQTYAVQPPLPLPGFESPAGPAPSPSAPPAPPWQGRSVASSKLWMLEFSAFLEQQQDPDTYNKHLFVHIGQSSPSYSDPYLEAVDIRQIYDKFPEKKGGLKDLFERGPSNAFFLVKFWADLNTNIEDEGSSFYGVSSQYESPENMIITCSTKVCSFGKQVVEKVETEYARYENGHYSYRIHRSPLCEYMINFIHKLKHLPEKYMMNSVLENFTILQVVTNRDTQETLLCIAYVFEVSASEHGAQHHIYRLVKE
N-terminally V5-tagged Asp272Ala^TEAD4 (full length) (Q15561, form named): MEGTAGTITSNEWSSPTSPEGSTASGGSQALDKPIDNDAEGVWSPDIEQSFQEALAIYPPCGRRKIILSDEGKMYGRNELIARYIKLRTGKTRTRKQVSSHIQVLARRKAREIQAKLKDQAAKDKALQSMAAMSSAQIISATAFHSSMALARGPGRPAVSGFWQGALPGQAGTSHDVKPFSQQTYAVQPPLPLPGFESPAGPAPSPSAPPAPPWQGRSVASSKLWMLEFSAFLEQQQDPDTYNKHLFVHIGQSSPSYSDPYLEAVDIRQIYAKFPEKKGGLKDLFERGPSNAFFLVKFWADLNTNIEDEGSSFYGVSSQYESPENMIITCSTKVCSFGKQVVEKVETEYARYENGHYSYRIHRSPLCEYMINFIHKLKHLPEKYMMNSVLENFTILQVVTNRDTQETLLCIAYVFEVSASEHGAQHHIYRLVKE

Columns and labels:
[1] = target: N-terminally V5-tagged wt^TEAD4 (full length) (human) (UniProt Q15561); assay: co-IP; V5-TEAD4 and (FLAG)3-VGLL2 co-transfected into HEK293FT YAP/TAZ double knockout cells; V5 immunoprecipitation, anti-FLAG Western blot; similar results in wild-type HEK293FT cells
[2] = target: N-terminally V5-tagged Asp272Ala^TEAD4 (full length) (human) (UniProt Q15561); assay: as above

B1: (FLAG)3-wt^VGLL2 (full length) (protein, UniProt Q8N8G2-1 1-317)
chain: MSCLDVMYQVYGPPQPYFAAAYTPYHQKLAYYSKMQEAQECNASPSSSGSGSSSFSSQTPASIKEEEGSPEKERPPEAEYINSRCVLFTYFQGDISSVVDEHFSRALSQPSSYSPSCTSSKAPRSSGPWRDCSFPMSQRSFPASFWNSAYQAPVPPPLGSPLATAHSELPFAAADPYSPAALHGHLHQGATEPWHHAHPHHAHPHHPYALGGALGAQAAPYPRPAAVHEVYAPHFDPRYGPLLMPAASGRPARLATAPAPAPGSPPCELSGKGEPAGAAWAGPGGPFASPSGDVAQGLGLSVDSARRYSLCGASLLS
binding [1]: binds
binding [2]: binds
